Measured values published in patent publication US20060252798A1, “Metal ion chelators and therapeutic use thereof” (priority 2003, published 2006).
At least one structure is not confirmed: it was looked up by name or label, or the drawing left a doubt. Some entries share one result that the patent states for a list of compounds.

Legend:
[1] = test system: SK-N-MC neuroepithelioma cells; experiment: 59Fe mobilization from prelabelled SK-N-MC neuroepithelioma cells; assay type: cell-based, human; conditions: chelators 25 μM, 3 h at 37° C.; media alone released 5% (FIG. 11A)
Protocol: The effect of chelators on ^59Fe release from prelabelled cells was studied using standard procedures.^18 Cells were prelabelled with ^59Fe-transferrin (0.75 μM) for 3 h at 37° C. […] The overlying medium was then removed and placed into γ-counting tubes. The cells were removed from the petri dishes in 1 ml of BSS using a plastic spatula and transferred to a separate set of γ-counting tubes.
The ability of the compounds to mobilise ^59Fe from SK-N-MC neuroepithelioma cells was assessed after a 3 h labelling period with ^59Fe-Tf (0.75 μM) at 37° C. […]
DFO and 311 were used as internal standards.

[2] = test system: SK-N-MC neuroepithelioma cells; experiment: MTT cellular proliferation assay, SK-N-MC; assay type: cell-based, human; conditions: Table 3, 0-25 μM, 72 h, mean ± SD
Protocol: […] […] After this incubation, 0.01 mL of MTT was added to each well and the plates incubated for 2 h at 37° C. The cells were then solubilised by adding 0.1 mL of 10% SDS-50% isobutanol in 0.01 M HCl and the plates then read at 570 nm on a scanning multiwell spectrophotometer (Titertek Multiscan; Beckman Instruments Inc, California). MTT colour formation was directly proportional to the number of viable cells.
The effect of the compounds on the proliferation of SK-N-MC neuroepithelioma cells was examined using the MTT assay (described above).
(§1) Dp2mT served as a negative control.

[3] = test system: SK-N-MC neuroepithelioma cells; experiment: 59Fe uptake from 59Fe-transferrin by SK-N-MC neuroepithelioma cells; assay type: cell-based, human; conditions: 25 μM, 3 h at 37° C. (FIG. 11B)
Protocol: The cells were then placed on ice and washed four times with ice-cold Hank's balanced salt solution (BSS) to remove non-specifically bound ^59Fe-Tf. Cells were then incubated with the general protease, pronase (1 mg/ml), for 30 min at 4° C. to remove membrane-bound ^59Fe and Tf.
PCTH was used as an internal control.

[4] = test system: SK-Mel-28 melanoma cells; experiment: MTT cellular proliferation assay, SK-Mel-28; assay type: cell-based, human; conditions: Table 3, 72 h, mean ± SD
Protocol: The final concentration of the compounds was 0.39-50 μM. […] […] After this incubation, 0.01 mL of MTT was added to each well and the plates incubated for 2 h at 37° C. The cells were then solubilised by adding 0.1 mL of 10% SDS-50% isobutanol in 0.01 M HCl and the plates then read at 570 nm on a scanning multiwell spectrophotometer (Titertek Multiscan; Beckman Instruments Inc, California). MTT colour formation was directly proportional to the number of viable cells.
as §1
(§2) Dp2mT served as a negative control as the methyl group at the 2-position hinders Fe-chelation.

[5] = test system: MCF-7 breast cancer cells; experiment: MTT cellular proliferation assay, MCF-7; assay type: cell-based, human; conditions: Table 3, 72 h, mean ± SD
Protocol: […] […] […] After this incubation, 0.01 mL of MTT was added to each well and the plates incubated for 2 h at 37° C. The cells were then solubilised by adding 0.1 mL of 10% SDS-50% isobutanol in 0.01 M HCl and the plates then read at 570 nm on a scanning multiwell spectrophotometer (Titertek Multiscan; Beckman Instruments Inc, California). MTT colour formation was directly proportional to the number of viable cells.
as §1, §2

[6] = test system: M109 carcinoma cells; experiment: 59Fe mobilisation from prelabelled M109 cells; assay type: cell-based, mouse; conditions: 5 μM, 3 h; control medium 8±1%
Protocol: The ability of the compound Dp44mT to inhibit the growth of M109 lung carcinoma cells in mice was assessed. Studies were performed using M109 carcinoma cells in culture to determine the effect of Dp44mT on mobilising ^59Fe from these cells (FIG. 11C) and inhibiting ^59Fe uptake from ^59Fe-Tf (FIG. 11D). As internal controls, cells were incubated with DFO and 311. The effect of compound concentration on increasing ^59Fe mobilisation from M109 cells was examined by labelling cells with ^59Fe-Tf (0.75 μM) for 3 h at 37° C. followed by washing and reincubation with the respective compounds (0.2-25 μM) for 3 h at 37° C. (FIG. 11C). […] In contrast, 311 increased cellular ^59Fe release from 8±1% (control medium) to […] at 5 μM (FIG. 11C). For Dp44mT ^59Fe release plateaued at 2 μM, resulting in the efflux of 48±2% of ^59Fe (FIG. 11C).

Row | Structure (SMILES) | efflux/mobilisation of total cellular 59Fe [1] | IC50 [2] | 59Fe uptake from 59Fe-Tf [3] | IC50 [4] | IC50 [5] | cellular 59Fe release [6]
1 | CN(N=C(c1ccccn1)c1ccccn1)C(N)=S [Dp2mT, di-2-pyridylketone 2-methyl-3-thiosemicarbazone] | 6-7% |  |  |  |  | 
2 | CN(C)C(=S)NN=C(c1ccccn1)c1ccccn1 [Dp44mT, di-2-pyridylketone 4,4-dimethyl-3-thiosemicarbazone] |  | 30 to 60 nM | 5-9 % of the control | 60 to 100 nM | 60 to 100 nM | 
3 | O=C(NN=Cc1c(O)ccc2ccccc12)c1ccncc1 [compound 311, 2-hydroxy-1-naphthylaldehyde isonicotinoyl hydrazone] |  |  | 5-9 % of the control |  |  | 60=1%
